In the supplement of paper PMC10849652:
Some of the results follow.

The chains behind the UniProt entries cited, without tags or fusion partners. Where a name states a change or a piece, a line headed by the entry shows the natural chain unless it says otherwise.
UniProt Q96DX7: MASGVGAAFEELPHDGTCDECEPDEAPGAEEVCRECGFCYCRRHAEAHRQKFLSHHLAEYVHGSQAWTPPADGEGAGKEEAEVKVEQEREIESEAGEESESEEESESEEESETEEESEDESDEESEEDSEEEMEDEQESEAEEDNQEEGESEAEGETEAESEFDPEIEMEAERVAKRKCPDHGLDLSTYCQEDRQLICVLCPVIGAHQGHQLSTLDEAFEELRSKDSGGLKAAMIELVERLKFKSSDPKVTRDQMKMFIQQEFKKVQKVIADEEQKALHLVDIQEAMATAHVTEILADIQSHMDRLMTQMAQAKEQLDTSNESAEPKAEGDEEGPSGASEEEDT
UniProt Q6Q0C0: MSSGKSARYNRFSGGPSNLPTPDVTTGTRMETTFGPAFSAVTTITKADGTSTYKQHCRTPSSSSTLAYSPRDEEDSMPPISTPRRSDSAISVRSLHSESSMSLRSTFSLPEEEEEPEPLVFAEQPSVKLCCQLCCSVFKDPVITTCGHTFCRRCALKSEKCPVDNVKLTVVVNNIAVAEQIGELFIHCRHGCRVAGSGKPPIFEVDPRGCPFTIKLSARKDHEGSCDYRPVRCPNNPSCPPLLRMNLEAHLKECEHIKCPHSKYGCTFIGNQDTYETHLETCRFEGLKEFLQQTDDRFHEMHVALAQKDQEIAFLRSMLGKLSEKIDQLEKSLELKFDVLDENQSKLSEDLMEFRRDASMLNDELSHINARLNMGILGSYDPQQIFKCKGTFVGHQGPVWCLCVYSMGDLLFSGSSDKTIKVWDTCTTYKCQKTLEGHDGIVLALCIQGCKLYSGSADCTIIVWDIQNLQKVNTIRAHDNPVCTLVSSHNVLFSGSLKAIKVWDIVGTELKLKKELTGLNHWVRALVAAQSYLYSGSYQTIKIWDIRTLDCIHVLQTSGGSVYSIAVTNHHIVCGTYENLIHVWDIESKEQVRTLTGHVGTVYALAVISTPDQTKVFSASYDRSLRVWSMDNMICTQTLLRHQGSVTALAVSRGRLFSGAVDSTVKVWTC
UniProt Q8N4H5: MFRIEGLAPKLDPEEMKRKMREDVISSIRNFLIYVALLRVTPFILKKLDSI
UniProt Q86W33: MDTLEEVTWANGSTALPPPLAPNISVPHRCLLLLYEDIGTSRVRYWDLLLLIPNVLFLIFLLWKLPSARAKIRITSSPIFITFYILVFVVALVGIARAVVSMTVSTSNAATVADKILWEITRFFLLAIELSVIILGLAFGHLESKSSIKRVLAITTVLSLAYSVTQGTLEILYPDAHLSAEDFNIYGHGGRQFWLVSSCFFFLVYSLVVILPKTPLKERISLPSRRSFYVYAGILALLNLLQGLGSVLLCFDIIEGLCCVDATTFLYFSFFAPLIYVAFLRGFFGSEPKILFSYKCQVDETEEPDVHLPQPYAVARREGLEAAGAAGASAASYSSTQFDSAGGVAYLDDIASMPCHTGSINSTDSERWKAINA

Tests used:
Assay in all cases: log2 fold change, soluble protein after heating vs DMSO (PISA); higher = thermal stabilisation; K562 cells, 10 uM, 30 min; active = over 0.2 and 3.5 SD of the protein, either way, in both replicates (recomputed)
[1] = compound: NC(=O)Nc1cc(-c2cccc(F)c2)sc1C(=O)N[C@H]1CCCNC1
Outline: (§1)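 K562 cells (2×10^6 cells/mL) were treated with 10 μM compound for 30 min, and aliquots were heated for 3 min over 48°C-58°C. Pooled aliquots were extracted in PBS with 0.5% NP-40 at 4°C, and the supernatant after 21,000xg for 90 min was measured by TMTpro 16plex LC-MS/MS with channel sums equalised. Reported thermal stability, relative to control samples and from duplicates, is a log2 fold change.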

[2] = compound: NC(=O)c1cnc(N[C@@H]2CCCC[C@@H]2N)nc1Nc1cccc(-n2nccn2)c1
Outline: as §1

[3] = compound: NC1(c2ccc(-c3nc4ccn5c(=O)[nH]nc5c4cc3-c3ccccc3)cc2)CCC1
Outline: as §1

[4] = compound: NCC(=O)Nc1ccc(-n2nc(C(F)(F)F)cc2-c2ccc3c(ccc4ccccc43)c2)cc1
Outline: as §1

entinostat = compound: Nc1ccccc1NC(=O)c1ccc(CNC(=O)OCc2cccnc2)cc1 [entinostat]
Outline: as §1

vorinostat = compound: O=C(CCCCCCC(=O)Nc1ccccc1)NO [vorinostat]
Outline: as §1

citarinostat = compound: O=C(CCCCCCNC(=O)c1cnc(N(c2ccccc2)c2ccccc2Cl)nc1)NO [citarinostat]
Outline: as §1

silmitasertib = compound: O=C(O)c1ccc2c(c1)nc(Nc1cccc(Cl)c1)c1ccncc12 [silmitasertib]
Outline: as §1

[5] = compound: c1cc(OCCN2CCCCC2)cc(-c2n[nH]c3ccc(-c4nnc[nH]4)cc23)c1
Outline: as §1

[6] = compound: O=C1NC(=O)C(c2cnc3ccccn23)=C1c1cn2c3c(cc(F)cc13)CN(C(=O)N1CCCCC1)CC2
Outline: as §1

Measured: log2 fold change

TRIM44 (UniProt Q96DX7)
inactive: [1] 0 | [2] -0.037 | [3] -0.048 | [4] 0.02 | entinostat -0.048 | vorinostat 0.015 | citarinostat 0.008 | silmitasertib 0.045 | [5] -0.083

TRAF7 (UniProt Q6Q0C0)
inactive: [1] -0.03 | [2] -0.019 | [3] -0.181 | [4] 0.188 | entinostat -0.035 | silmitasertib -0.002 | [6] -0.049

TOMM5 isoform 2 (UniProt Q8N4H5)
inactive: [1] -0.053 | [2] 0.002 | [3] -0.083 | [4] 0.084 | entinostat 0.067 | vorinostat -0.117 | citarinostat 0.039 | silmitasertib -0.043 | [6] -0.158 | [5] 0.099

TPRA1 (UniProt Q86W33)
inactive: [1] 0.03 | [2] -0.136 | [3] -0.016 | [4] 0.013 | entinostat 0.127 | vorinostat -0.224 | silmitasertib 0.055 | [6] -0.026
